Test results: PubChem BioAssay AID540256 (National Center for Advancing Translational Sciences (NCATS), 2011)
“And” between values parts separate entries of the source, which are not always exact repeats. Identical values can stand only once. Screen size: about 300,000 compounds; about 3,700 (1.2%) were called active. The inconclusive results got no clear call from the source; some entries with a clear call stand among them for comparison. Calls follow the shape of the full dose curve; tested in HEK293 cells. A potency beside an inconclusive call is a rough fit, not a confirmed value.

assay: qHTS for Inhibitors of binding or entry into cells for Lassa Virus; conditions: Lassa virus pseudotype entry inhibition, cell reporter; series mostly up to 37.9 µM; also: nearly all actives have a fitted effect of over 50% in size
Potency is read from the fitted curve at half-maximal effect.

| SMILES | Potency |
| --- | --- |
| Cc1ccc(C(=O)NC(C)c2ccc(-n3ccnc3)cc2)cc1S(=O)(=O)N1CCOCC1 (centres undefined) | inactive |
| CC(=O)c1sc(N/N=C\c2ccc(Br)cc2)nc1C | inconclusive: 7.08 µM [activator, full curve, poor fit] |
| CC/C(=C\C(=O)c1ccncc1)Nc1ccc(O)cc1 | inconclusive: 11.2 µM [inhibitor, partial curve, poor fit] |
| CCCN(CCC)C(=O)Cn1c(=O)n(-c2ccc(Cl)c(Cl)c2)c(=O)c2c(C)c(C(=O)N(C)C)sc21 | inactive |
| COC(=O)[C@@H]1[C@@H](C#N)C2(c3ccccc3-c3ccccc32)N(c2ccc(Cl)cc2)N1C#N | inconclusive: 8.91 µM [inhibitor, partial curve, poor fit] |
| CC1(C)NC(=O)N(CC(=O)OCC(=O)c2ccc(Cl)s2)C1=O | inconclusive: 10 µM [inhibitor, partial curve, poor fit] |
| Cc1nn(-c2ccc(N3CCCCC3)nn2)c(C)c1CCC(=O)Nc1ccc(F)c(F)c1 | inconclusive: 10 µM [inhibitor, partial curve, poor fit] |
| Cn1c(/C(C#N)=C/c2ccc(C(F)(F)F)cc2)nc2ccccc21 | inactive |
| Oc1cccc(Nc2ncnc3c2oc2ccccc23)c1 | inactive |
| CCOC(=O)c1ccc(NC(=S)N2CCSC2c2ccc(Cl)cc2)cc1 (centres undefined) | inconclusive: 35.5 µM [inhibitor, partial curve, poor fit] |
| Cc1ccc2c(-c3ccnc(Nc4ccc5c(c4)OCCO5)n3)c(-c3ccc(C(F)(F)F)cc3)nn2n1 | inconclusive: 28.1 µM [inhibitor, single point] |
| Cc1ccc(S(=O)(=O)/N=C(\CCl)N2CCOCC2)cc1 | inconclusive: 35.5 µM [inhibitor, single point] |
| O=C(Nc1ccn(Cc2ccccc2F)n1)c1ccc(COc2ccccc2Cl)cc1 | inconclusive: 14.1 µM [inhibitor, partial curve, poor fit] |
| Cc1cc(NC(=O)c2ccc(C#N)cc2)n(-c2ccccn2)n1 | inconclusive: 35.5 µM [activator, partial curve, poor fit] |
| COc1cc2ccccc2cc1C(=O)N(CCN(C)C)c1nc2ccc(C)cc2s1 | inconclusive: 35.5 µM [inhibitor, single point] |
| CN(C)C(CNC(=O)c1ccc2c(=O)n(-c3ccccc3F)c(=S)[nH]c2c1)Cc1ccccc1 (centres undefined) | inactive |
| O=c1sc2ccccc2n1CCOc1ccccc1 | inconclusive: 1.64 µM [activator, partial curve] |
| CSC1=N/C(=C\c2ccc(F)cc2)C(=O)S1 | inconclusive: 0.112 µM [inhibitor, full curve, poor fit] |
| O=C(O)c1cccc(COc2ccc(CO)cc2Cl)c1 | active: 0.291 µM |
| O=C1c2ccccc2C(=O)N1CCCc1nc(-c2ccccn2)no1 | inactive |
| CC(=O)Nc1cccc(-c2nc3ccccc3[nH]2)c1 | inactive |
| O=C(CSc1n[nH]c(=O)n1-c1cccnc1)N1CCOCC1 | inactive |

| SMILES | Potency |
| --- | --- |
| C=CCn1c(SCC(=O)Nc2cc(NC(C)=O)ccc2OC)nnc1-c1ccccn1 | inconclusive: 18.3 µM [activator, partial curve, poor fit] |
| CCCN(CCC)CC(=O)NCC1(c2ccccc2)CCOCC1 | inactive |
| COc1ccccc1N1CCN(C(=O)CN(CCc2ccccc2)S(C)(=O)=O)CC1 | inconclusive: 13 µM [inhibitor, partial curve, poor fit] |
| Cc1nn(C2CCS(=O)(=O)C2)c(Cl)c1/C=C/C(=O)OCC(=O)c1cc(C)n(-c2ccc(F)cc2)c1C (centres undefined) | inconclusive: 16.4 µM [inhibitor, single point] |
| COc1ccc(NC2(c3ccccc3)OC(=O)c3ccccc32)cc1 (centres undefined) | inconclusive: 14.1 µM [inhibitor, partial curve, poor fit] |
| Cc1ccc(-n2c(=O)c3c(cnn3C)n(CC(=O)Nc3cccc(C)c3)c2=O)cc1 | inactive |
| COc1ccccc1N1CCN(C(=O)c2cc3c(-c4ccccc4F)nn(C)c3s2)CC1 | inconclusive: 22.4 µM [inhibitor, single point] |
| O=C(Nc1ccc(Br)cn1)c1cccc(-c2cc3ccccc3oc2=O)c1 | inconclusive: 2 µM [activator, partial curve, poor fit] |
| COc1ccc2nc(C)cc(Nc3ccc(N4CCOCC4)cc3)c2c1 | inactive |
| C=C(C)CNC(=S)N/N=C/c1ccc(NC(C)=O)cc1 | inconclusive: 4.47 µM [inhibitor, full curve, poor fit] |
| CCOc1ccc(/C=C/c2nc(C#N)c(NCCCN(C)C)o2)cc1 | inactive and inconclusive: 3.16 µM [activator, partial curve, poor fit] |
| COC(=O)c1ccccc1NC(=O)Cn1c(=O)n(CCCC(=O)NCc2ccccc2Cl)c(=O)c2ccccc21 | inactive |
| C=CCNc1nc(-c2sc(NC(=O)CC)nc2C)cs1 | inconclusive: 25.9 µM [inhibitor, single point] |
| O=C1CCCCC1Nc1ccc2ccccc2c1 (centres undefined) | inconclusive: 2.82 µM [inhibitor, full curve, poor fit] |
| O=C(CN1C(=O)C2CCCCC2C1=O)OCc1nnc(-c2ccccc2)o1 (centres undefined) | inconclusive: 0.631 µM [inhibitor, partial curve, poor fit] |
| N#Cc1ccccc1OCC(=O)OCC(=O)N1CCN(C(=O)c2ccco2)CC1 | inconclusive: 6.31 µM [inhibitor, single point] |
| Cc1ccc(-c2nc3ccccc3c(=O)n2-c2cccc(O)c2)cc1 | inconclusive: 4.47 µM [inhibitor, partial curve, poor fit] |
| Cc1nc(Nc2ccccc2)sc1-c1ccccc1 | inconclusive: 14.1 µM [inhibitor, single point] |
| O=C(COC(=O)c1ccco1)NCC1CCCCC1 | inactive |
| CSc1cccc(NC(=O)CN2C(=O)CCc3cc(S(=O)(=O)N4CCCCC4)ccc32)c1 | inconclusive: 7.94 µM [inhibitor, partial curve, poor fit] |
| O=c1c2cc(N3CCOCC3)ccc2[nH]c(=S)n1CC1CCCO1 (centres undefined) | inconclusive: 23.1 µM [inhibitor, single point] |
| Cc1cc(/C=C(\C#N)C(=O)N2CCCCC2)cc(C)c1O | inconclusive: 35.5 µM [inhibitor, single point] |

| SMILES | Potency |
| --- | --- |
| COc1ccc(-n2c(=O)c3c(c4cc(OC)ccc4n3C)n(CC(=O)N3CCCC3)c2=O)cc1 | inactive |
| O=C(NCc1cccs1)c1ccncc1 | inactive |
| O=C(OC1CNC(C#Cc2cc3ncnc(Nc4ccc(Cc5ccccc5)cc4)c3s2)C1)N1CCOCC1 (centres undefined) | inconclusive: 15.8 µM [inhibitor, partial curve] |
| COc1ccc(N2CCN(CCCNC(=O)c3ccc4nc(Cc5ccccc5)oc4c3)CC2)cc1 | inconclusive: 35.5 µM [inhibitor, single point] |
| CCOc1ccc(CNC(=O)C2CCCN(c3nn4cc(-c5ccc(F)cc5)nc4s3)C2)cc1 (centres undefined) | inconclusive: 3.16 µM [activator, full curve, poor fit] |
| CC1CCCCC1NC(=O)CNC(=O)c1cccs1 (centres undefined) | inconclusive: 2.82 µM [activator, partial curve, poor fit] |
| c1ccc(Cn2nnnc2C(c2ccccn2)N2CCN(c3ccccc3)CC2)cc1 (centres undefined) | inconclusive: 12.6 µM [inhibitor, partial curve, poor fit] |
| Cc1cc(C)cc(C(=O)O/N=C(\N)c2ccc(Br)cc2)c1 | inconclusive: 8.2 µM [inhibitor, partial curve, poor fit] |
| CCOC(=O)C1CCN(C(=O)Cn2ncc3c4ccccc4n(Cc4ccccc4)c3c2=O)CC1 | inactive |
| COc1cccc(N=c2oc3ccc(OC)cc3cc2-c2nc3ccccc3[nH]2)c1 | inconclusive: 23.1 µM [inhibitor, single point] |
| CCOC(=O)NC1(NCC(C)C)Oc2ccccc2O1 | inconclusive: 29.1 µM [inhibitor, single point] |
| COc1ccc(C(=O)NC(C)c2nnc(SCC(=O)NC3CCCC3)n2C)cc1 (centres undefined) | inconclusive: 15.8 µM [activator, partial curve, poor fit] |
| COc1cc(C(=O)Nc2cc(-c3ccccc3)[nH]n2)cc(OC)c1OC | inconclusive: 29.1 µM [inhibitor, single point] |
| CC1CCN(C(=O)CSc2nnc(NC(=O)Nc3ccccc3)s2)CC1 | inactive |
| Cc1ccccc1C(=O)N1CCN=C1SCc1ccc([N+](=O)[O-])cc1 | inconclusive: 14.1 µM [inhibitor, partial curve, poor fit] |
| O=C(CSc1nc2ccccc2c(=O)n1CCCN1CCOCC1)Nc1cccc(S(=O)(=O)N2CCCCCC2)c1 | inconclusive: 411 nM [inhibitor, partial curve, poor fit] and inconclusive: 35.5 µM [inhibitor, single point] |
| CCN1CCN(c2nc3c(C)cccn3c(=O)c2/C=C(\C#N)C(=O)NC)CC1 | inconclusive: 35.5 µM [inhibitor, single point] |
| COc1ccc(C(=O)N(c2ccc(C)cc2)S(=O)(=O)c2ccc(C)cc2)cc1 | inconclusive: 14.1 µM [inhibitor, single point] |
| Cc1cc(C)nc(SCCS(=O)(=O)Cc2ccc(Cl)cc2)n1 | inactive |
| O=C1CC(c2ccc(F)cc2F)c2cc3c(cc2N1)OCO3 (centres undefined) | inconclusive: 10 µM [inhibitor, partial curve, poor fit] |
